Assay results from publication PMC12431657, “Discovery and mechanistic insights of dibenzoylmethane as a broad spectrum inhibitor of coronavirus” (PLOS Pathogens, 2025).
Where two headings read alike, the source gives them in different places. In all, about 3,300 compounds went through this assay and about 95 (3%) showed an effect of 50% or more. Some of the results follow.

Tested on: HCoV-229E
Set-up: species or system Huh-7; HTS, protection from HCoV-229E induced cell death, luminescent cell viability (CellCounting-Lite 2.0), inhibition rate
Settings: 24 h post infection, 1 h compound pre-incubation, 10 µM, inhibitor

## C=C(C)[C@@H]1CC[C@]2(C)[C@H](CC=C3[C@@H]4[C@@H](C)[C@H](C)CC[C@]4(C)CC[C@]32C)[C@@]1(C)CCC(=O)O [Roburic acid]
  229E Inhibition rate: 29.2%

## COc1cc2ccc(=O)oc2cc1O [Scopoletin]
  229E Inhibition rate: 15%

## O=C(C[C@H]1NCCC[C@@H]1O)Cn1cnc2cc(Br)c(Cl)cc2c1=O (racemic) [Halofuginone]
229E Inhibition rate, 24 h
  229E Inhibition rate: 29.9%

## O=C(O)CCCC[C@@H]1CCSS1 [Lipoic acid]
  229E Inhibition rate: 22.6%

## Cc1cc(O)cc(C)c1O [2,6-Dimethylhydroquinone]
  229E Inhibition rate: 22.1%

## O=Cc1cccs1 [2-Thiophenecarboxaldehyde]
  229E Inhibition rate: 6.5%

## CCCSSC [Methyl propyl disulfide]
  229E Inhibition rate: 9.2%

## C1=Cc2cccc3cccc1c23 [Acenaphthylene]
  229E Inhibition rate: 13.4%

## CC(C)CCC[C@@H](C)[C@H]1CC[C@H]2[C@@H]3CC[C@H]4CC(=O)CC[C@]4(C)[C@H]3CC[C@]12C [5α-Cholestan-3-one]
  229E Inhibition rate: 7.8%

## C=C1C[C@@]23CC[C@H]4[C@@](C)(CCC[C@@]4(C)C(=O)O[C@@H]4O[C@H](CO)[C@@H](O)[C@H](O)[C@H]4O)[C@@H]2CC[C@]1(O[C@@H]1O[C@H](CO)[C@@H](O)[C@H](O)[C@H]1O)C3 [Rubusoside]
  229E Inhibition rate: 5.1%

## CC/C=C\C/C=C\C/C=C\CCCCCCCC(=O)OC [Methyl linolenate]
  229E Inhibition rate: 18.3%

## COC(=O)[C@]12OC[C@]34[C@H]([C@@H](O)[C@@H]1O)[C@@]1(C)CC(=O)C(O)=C(C)[C@@H]1C[C@H]3OC(=O)[C@H](OC(=O)C=C(C)C)[C@@H]24 [Brusatol]
  229E Inhibition rate: 15.3%

## COc1ccc2c(OC)c3ccoc3nc2c1 [Evolitrine]
  229E Inhibition rate: 8.5%

## c1cncc([C@@H]2CCCCN2)c1 [Anabasine]
  229E Inhibition rate: 10.7%

## C[C@@H](N)C(=O)O [D-Alanine]
  229E Inhibition rate: 14.5%

## O=c1[nH]cc(CO)c(=O)[nH]1 [5-Hydroxymethyluracil]
  229E Inhibition rate: 7%

## COc1ccc(-c2coc3cc(O[C@@H]4O[C@H](CO)[C@@H](O)[C@H](O)[C@H]4O)ccc3c2=O)cc1O [Calycosin-7-O-β-D-glucoside]
  229E Inhibition rate: 17.9%

## CC1(C)CC[C@]2(C(=O)O[C@@H]3O[C@H](CO)[C@@H](O)[C@H](O)[C@H]3O)CC[C@]3(C)C(=CC[C@@H]4[C@@]5(C)CC[C@H](O)C(C)(C)[C@@H]5CC[C@]43C)[C@@H]2C1 [Oleanolic acid 28-O-β-D-glucopyranoside]
  229E Inhibition rate: 21.6%

## CC1(C)[C@H](OC(=O)c2ccccc2)CC[C@]2(C)C3=C([C@@H](O)C[C@@H]12)[C@@]1(C)CC[C@@]2(C)CC[C@@](C)(COC(=O)c4ccccc4)C[C@H]2[C@]1(C)CC3 [3,29-Dibenzoyl rarounitriol]
  229E Inhibition rate: 20.2%

## O=C(O)CCCCCCCCCC(=O)O [Undecanedioic acid]
  229E Inhibition rate: 15.1%

## CCOC(=O)/C=C/c1ccc(OC)cc1 [(E)-Ethyl p-methoxycinnamate]
  229E Inhibition rate: 17.3%

## C[C@@H]1O[C@@H](Oc2c(-c3ccc(O)cc3)oc3cc(O[C@@H]4O[C@@H](C)[C@H](O)[C@@H](O)[C@H]4O[C@@H]4O[C@H](CO)[C@@H](O)[C@H](O)[C@H]4O)cc(O)c3c2=O)[C@H](O)[C@H](O)[C@H]1O [Grosvenorine]
  229E Inhibition rate: 15.4%

## COc1ccc2[nH]c(=O)oc2c1 [Coixol]
  229E Inhibition rate: 0%

## COc1cc2c(cc1OC)[C@@H]1Cc3ccc(OC)c(OC)c3CN1CC2 [Rotundine]
229E Inhibition rate, 24 h
  229E Inhibition rate: 14.2%

## CC(=O)O[C@H]1C(=O)[C@@]2(C)[C@H]([C@H](OC(=O)c3ccccc3)[C@]3(O)C[C@H](O)C(C)=C1C3(C)C)[C@]1(OC(C)=O)CO[C@@H]1C[C@@H]2O [Baccatin III]
  229E Inhibition rate: 20.5%

## CC(=O)CCc1ccccc1 [Benzylacetone]
  229E Inhibition rate: 14.7%

## O=C(/C=C/c1ccc(O)cc1)c1c(O)cc(O)cc1O [Naringenin chalcone]
  229E Inhibition rate: 38.1%

## C=C[C@]1(C)C[C@@H](OC(=O)CO)[C@]2(C)[C@H](C)CC[C@]3(CCC(=O)[C@H]32)[C@@H](C)[C@@H]1O [Pleuromutilin]
  229E Inhibition rate: 38.5%

## COc1cc(-c2coc3c([C@@H]4O[C@H](CO)[C@@H](O)[C@H](O)[C@H]4O)c(O)ccc3c2=O)ccc1O [3'-Methoxypuerarin]
  229E Inhibition rate: 34.9%

## Cc1cc(O)cc(O)c1C(=O)O [Orsellinic acid]
  229E Inhibition rate: 15%

## CCC(O)CC(=O)O (stereo not drawn) [3-Hydroxyvaleric acid]
  229E Inhibition rate: 9.6%

## C=C(CCC=C(C)C)[C@H]1CC[C@]2(C)[C@@H]1[C@H](O)C[C@@H]1[C@@]3(C)CC[C@H](O[C@@H]4O[C@H](CO)[C@@H](O)[C@H](O)[C@H]4O[C@@H]4O[C@H](CO)[C@@H](O)[C@H](O)[C@H]4O)C(C)(C)[C@@H]3CC[C@]12C [Ginsenoside Rk1]
  229E Inhibition rate: 9.9%

## CC(=O)NCC(=O)O [N-Acetylglycine]
  229E Inhibition rate: 10.2%

## CC(C)=CC/C=C(\C)[C@H]1CC[C@]2(C)[C@@H]1[C@H](O)C[C@@H]1[C@@]3(C)C[C@@H](O)[C@H](O[C@@H]4O[C@H](CO)[C@@H](O)[C@H](O)[C@H]4O[C@@H]4O[C@H](CO)[C@@H](O)[C@H](O)[C@H]4O)C(C)(C)[C@@H]3CC[C@]12C [Damulin A]
  229E Inhibition rate: 23.1%

## Cc1cc(=O)c2c(O)cc(O)cc2o1 [Noreugenin]
  229E Inhibition rate: 48.9%

## C[C@H]1O[C@H](O[C@@H]2[C@@H](O)[C@H](OCCc3ccc(O)c(O)c3)O[C@H](CO[C@H]3OCC(O)(CO)[C@@H]3O)[C@H]2OC(=O)/C=C/c2ccc(O)c(O)c2)[C@@H](O)[C@@H](O)[C@@H]1O (stereo partly drawn) [Forsythoside B]
  229E Inhibition rate: 14.6%

## CCC(O)C(=O)O (stereo not drawn) [Sodium 2-hydroxybutanoate]
  229E Inhibition rate: 9.6%

## CCCCC/C=C\C/C=C\CCCCCCCC(=O)OCC(O)CO (stereo not drawn) [1-Linoleoyl Glycerol]
  229E Inhibition rate: 49.8%

## CCCCCCCC(=O)OC [Methyl octanoate]
  229E Inhibition rate: 0%
